Results reported in paper PMC10641524.

The chains behind the UniProt entries cited, without tags or fusion partners.
UniProt Q9NP72: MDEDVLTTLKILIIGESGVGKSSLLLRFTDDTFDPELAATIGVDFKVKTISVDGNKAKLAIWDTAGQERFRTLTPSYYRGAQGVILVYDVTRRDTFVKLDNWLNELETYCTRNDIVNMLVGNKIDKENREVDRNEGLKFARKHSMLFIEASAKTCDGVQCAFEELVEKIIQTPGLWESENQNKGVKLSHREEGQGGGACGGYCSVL

B1: PBXIP1 (protein, UniProt Q96AQ6 1-731)
chain: MASCPDSDNSWVLAGSESLPVETLGPASRMDPESERALQAPHSPSKTDGKELAGTMDGEGTLFQTESPQSGSILTEETEVKGTLEGDVCGVEPPGPGDTVVQGDLQETTVVTGLGPDTQDLEGQSPPQSLPSTPKAAWIREEGRCSSSDDDTDVDMEGLRRRRGREAGPPQPMVPLAVENQAGGEGAGGELGISLNMCLLGALVLLGLGVLLFSGGLSESETGPMEEVERQVLPDPEVLEAVGDRQDGLREQLQAPVPPDSVPSLQNMGLLLDKLAKENQDIRLLQAQLQAQKEELQSLMHQPKGLEEENAQLRGALQQGEAFQRALESELQQLRARLQGLEADCVRGPDGVCLSGGRGPQGDKAIREQGPREQEPELSFLKQKEQLEAEAQALRQELERQRRLLGSVQQDLERSLQDASRGDPAHAGLAELGHRLAQKLQGLENWGQDPGVSANASKAWHQKSHFQNSREWSGKEKWWDGQRDRKAEHWKHKKEESGRERKKNWGGQEDREPAGRWKEGRPRVEESGSKKEGKRQGPKEPPRKSGSFHSSGEKQKQPRWREGTKDSHDPLPSWAELLRPKYRAPQGCSGVDECARQEGLTFFGTELAPVRQQELASLLRTYLARLPWAGQLTKELPLSPAFFGEDGIFRHDRLRFRDFVDALEDSLEEVAVQQTGDDDEVDDFEDFIFSHFFGDKALKKRSGKKDKHSQSPRAAGPREGHSHSHHHHHRG
B2: SSR3 (protein, UniProt Q9UNL2 1-185)
chain: MAPKGSSKQQSEEDLLLQDFSRNLSAKSSALFFGNAFIVSAIPIWLYWRIWHMDLIQSAVLYSVMTLVSTYLVAFAYKNVKFVLKHKVAQKREDAVSKEVTRKLSEADNRKMSRKEKDERILWKKNEVADYEATTFSIFYNNTLFLVVVIVASFFILKNFNPTVNYILSISASSGLIALLSTGSK
B3: SCFD2 (protein, UniProt Q8WU76 1-684)
chain: MSASGVLSFTQQGWEQVLAKVKRAVVYLDAACAESLHWGCGSTRLLEAVGGPDCHLREFEPDAIGGGAKQPKAVFVLSCLLKGRTVEILRDIICRSHFQYCVVVTTVSHAVHLTANHVPAAAAAEMEGQQPVFEQLEEKLCEWMGNMNYTAEVFHVPLLLAPVAPHFALTPAFASLFPLLPQDVHLLNSARPDKRKLGSLGDVDSTTLTPELLLQIRCLVSGLSSLCEHLGVREECFAVGSLSQVIAADLANYAPAKNRKKTAAGRASVVFVDRTLDLTGAVGHHGDNLVEKIISALPQLPGHTNDVMVNMIALTALHTEEENYNVVAPGCLSQSSDTTAKALWEALLNTKHKEAVMEVRRHLVEAASRENLPIKMSMGRVTPGQLMSYIQLFKNNLKALMNHCGLLQLGLATAQTLKHPQTAKWDNFLAFERLLLQSIGESAMSVVLNQLLPMIKPVTQRTNEDYSPEELLILLIYIYSVTGELTVDKDLCEAEEKVKKALAQVFCEESGLSPLLQKITDWDSSINLTFHKSKIAVDELFTSLRDIAGARSLLKQFKSVYVPGNHTHQASYKPLLKQVVEEIFHPERPDSVDIEHMSSGLTDLLKTGFSMFMKVSRPHPSDYPLLILFVVGGVTVSEVKMVKDLVASLKPGTQVIVLSTRLLKPLNIPELLFATDRLHPDLGF
B4: TRIM13 (protein, UniProt O60858 1-407)
chain: MELLEEDLTCPICCSLFDDPRVLPCSHNFCKKCLEGILEGSVRNSLWRPAPFKCPTCRKETSATGINSLQVNYSLKGIVEKYNKIKISPKMPVCKGHLGQPLNIFCLTDMQLICGICATRGEHTKHVFCSIEDAYAQERDAFESLFQSFETWRRGDALSRLDTLETSKRKSLQLLTKDSDKVKEFFEKLQHTLDQKKNEILSDFETMKLAVMQAYDPEINKLNTILQEQRMAFNIAEAFKDVSEPIVFLQQMQEFREKIKVIKETPLPPSNLPASPLMKNFDTSQWEDIKLVDVDKLSLPQDTGTFISKIPWSFYKLFLLILLLGLVIVFGPTMFLEWSLFDDLATWKGCLSNFSSYLTKTADFIEQSVFYWEQVTDGFFIFNERFKNFTLVVLNNVAEFVCKYKLL

Molecular target: BirA*-RAB18 (UniProt Q9NP72)
Test: proximity labelling; BioID: BirA*-RAB18 transiently expressed in WT HeLa cells (compared with RAB3GAP1-, RAB3GAP2- and TRAPPC9-null cells), 50 uM biotin 24 h; biotinylated proteins purified on streptavidin Dynabeads, label-free quantitative mass spectrometry; hits are proteins with RAB3GAP-null:WT intensity ratio <=0.5

binding, binds:
B1
B2
B3
B4

No constants are given. Whether binding was seen depends on the method and setting. In cells and extracts the contact can be indirect. A yes stands for co-enrichment or nearness to the bait. Other partners may have been found.
